For one molecule, binding results are on record in PMC12420792.

Protein sequences, listed by entry. Tags and fused reporters are not part of them.
UniProt Q9Z2C8: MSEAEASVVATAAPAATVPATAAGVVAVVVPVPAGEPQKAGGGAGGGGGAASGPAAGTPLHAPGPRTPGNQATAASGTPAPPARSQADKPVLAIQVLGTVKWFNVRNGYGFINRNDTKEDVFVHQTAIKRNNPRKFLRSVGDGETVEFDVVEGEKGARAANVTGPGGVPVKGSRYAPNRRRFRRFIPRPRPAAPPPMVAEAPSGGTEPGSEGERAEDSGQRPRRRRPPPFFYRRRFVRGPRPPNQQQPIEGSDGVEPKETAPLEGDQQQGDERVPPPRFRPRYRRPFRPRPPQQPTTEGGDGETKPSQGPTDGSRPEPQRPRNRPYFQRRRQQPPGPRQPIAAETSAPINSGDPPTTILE

Results are given in words; binding and its absence hold for the method and conditions named. In cells and extracts the contact can be indirect. Some results given as binding are weak or reduced against the parent protein; the word gives no strength. Sequences can lack the tags named with a protein.

What all share (experiment): co-IP; HeLa cells co-transfected, 36 h; NP40 lysis buffer with protease inhibitors; FLAG-beads or HA-beads, 4 °C, 2 h; four washes with lysis buffer; blots with anti-FLAG or anti-HA
One experiment addresses YBX2-FLAG (mouse) (UniProt Q9Z2C8).
The next experiment concerns the target T1, ZAR1-FLAG (mouse) (UniProt Q80SU3).
T1 sequence: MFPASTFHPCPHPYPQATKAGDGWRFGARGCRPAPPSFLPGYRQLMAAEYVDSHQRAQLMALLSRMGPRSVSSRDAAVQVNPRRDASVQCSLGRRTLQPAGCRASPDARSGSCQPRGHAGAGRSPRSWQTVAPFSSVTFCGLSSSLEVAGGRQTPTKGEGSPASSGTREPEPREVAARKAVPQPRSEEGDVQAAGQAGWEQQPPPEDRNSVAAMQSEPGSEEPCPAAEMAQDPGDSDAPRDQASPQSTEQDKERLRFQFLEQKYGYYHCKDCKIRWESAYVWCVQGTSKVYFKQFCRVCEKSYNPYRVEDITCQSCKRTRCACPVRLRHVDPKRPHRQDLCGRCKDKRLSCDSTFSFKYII

A further experiment deals with T2, ZAR1 Δ290-361 (mouse) (UniProt Q80SU3).
T2 sequence: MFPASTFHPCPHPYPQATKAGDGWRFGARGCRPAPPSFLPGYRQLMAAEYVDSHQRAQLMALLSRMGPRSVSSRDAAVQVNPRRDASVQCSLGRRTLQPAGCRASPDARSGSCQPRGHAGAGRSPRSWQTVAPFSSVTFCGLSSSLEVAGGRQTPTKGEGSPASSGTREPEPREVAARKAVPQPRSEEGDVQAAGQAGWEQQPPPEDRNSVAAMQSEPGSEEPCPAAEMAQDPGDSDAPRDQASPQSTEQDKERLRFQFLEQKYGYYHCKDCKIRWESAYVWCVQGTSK

Another experiment deals with T3, ZAR1 Δ218-289 (mouse) (UniProt Q80SU3).
T3 sequence: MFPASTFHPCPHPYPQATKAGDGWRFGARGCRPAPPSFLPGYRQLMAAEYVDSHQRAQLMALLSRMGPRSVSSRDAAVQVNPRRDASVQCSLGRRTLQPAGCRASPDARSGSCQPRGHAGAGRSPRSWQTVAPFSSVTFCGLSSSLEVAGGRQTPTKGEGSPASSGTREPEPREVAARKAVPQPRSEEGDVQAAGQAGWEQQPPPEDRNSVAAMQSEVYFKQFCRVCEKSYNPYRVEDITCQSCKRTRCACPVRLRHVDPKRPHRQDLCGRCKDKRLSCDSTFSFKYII

B1: KLHL8-HA (protein, UniProt P59280 1-629)
chain: MASESTNGKQARSHVTKGRRQYQHQHQQQQQQQQQVRSRSSVSECDGDDSFIFEANEAWKDFHGSLLGFYENGELCDVTLKVGSKLISCHKLVLACVIPYFRAMFLSEMSEAKQALIEIRDFDGDAVEDLVKFVYSSRLTLTVDNVQPLLYAACILQVELVARACCEYMQLHFHPSNCLAVRAFAESHNRIDLMDMADQYACEHFTEVVECEDFVSVSPQHLHKLLSSSDLNIDSEKQVYSAAIKWLLANPQHHPKWLDETLAQVRLPLLPVDFLMGVVAKEQIVKQNLKCRDLLDEARNYHLHLSSKPVPDFEYTVRTTPRKHTAGVLFCVGGRGGSGDPFRSIECYSINKNSWFFGPEMNSRRRHVGVISVEGKVYAVGGHDGNEHLGSMEMFDPLTNKWMMKASMNTKRRGIALASLGGPIYAIGGLDDNTCFSDVERYDIESDQWSTVAPMNTPRGGVGSVALINHVYAVGGNDGVASLSSVERYHPHLDKWIEVKEMGQRRAGNGVSELHGCLYVVGGFDDNSPLSSVERYDPRSNKWDYVAALTTPRGGVGIATVMGKIFAVGGHNGNAYLNTVEAFDPVLNKWELVGPVSHCRAGAGVAVCDCLTSQIRDVGHGSTNVVDCM
Regarding B1, the binding entry in the experiment with YBX2-FLAG (mouse) was “binds weakly”; with ZAR1-FLAG (mouse) it was “binds”; in the experiment with ZAR1 Δ290-361 (mouse) it was “no binding”; in the experiment with ZAR1 Δ218-289 (mouse) it was “no binding”.
